These are yes or no findings as the source states them, for the method shown. Some results given as binding are weak or reduced against the parent protein; the word gives no strength. For some assays here: Tags and fused reporters may be left off the sequences shown.
What was measured:
[1] = biological target: T1, TetR fusion of ENL (UniProt Q03111); assay: TetR recruitment to a TetO array, ChIP-qPCR; mouse ES cells with a TetO array stably expressing FS2-TetR fusion proteins; ChIP-qPCR for endogenous proteins at the TetO array; negative control 1 µg/ml doxycycline for 6 h
T1 sequence: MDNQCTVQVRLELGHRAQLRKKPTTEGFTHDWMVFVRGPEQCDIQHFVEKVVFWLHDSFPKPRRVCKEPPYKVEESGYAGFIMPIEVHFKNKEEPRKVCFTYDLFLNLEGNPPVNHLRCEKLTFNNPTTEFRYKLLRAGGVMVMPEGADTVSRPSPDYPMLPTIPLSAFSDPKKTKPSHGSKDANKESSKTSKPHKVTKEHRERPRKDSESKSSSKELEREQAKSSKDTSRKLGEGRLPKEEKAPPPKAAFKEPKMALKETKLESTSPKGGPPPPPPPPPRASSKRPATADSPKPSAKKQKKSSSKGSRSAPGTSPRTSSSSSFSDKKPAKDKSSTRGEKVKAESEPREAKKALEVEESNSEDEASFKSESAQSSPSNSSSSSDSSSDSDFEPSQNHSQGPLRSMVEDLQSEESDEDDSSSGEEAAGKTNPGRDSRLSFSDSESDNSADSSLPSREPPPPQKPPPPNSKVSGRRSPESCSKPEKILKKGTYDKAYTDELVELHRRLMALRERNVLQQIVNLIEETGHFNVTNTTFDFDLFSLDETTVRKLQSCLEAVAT

Sequences of proteins named here, by UniProt entry; tags and fusion partners are left off. A change or cut given only in a name is not applied to a line headed by its entry.
UniProt Q8TEK3: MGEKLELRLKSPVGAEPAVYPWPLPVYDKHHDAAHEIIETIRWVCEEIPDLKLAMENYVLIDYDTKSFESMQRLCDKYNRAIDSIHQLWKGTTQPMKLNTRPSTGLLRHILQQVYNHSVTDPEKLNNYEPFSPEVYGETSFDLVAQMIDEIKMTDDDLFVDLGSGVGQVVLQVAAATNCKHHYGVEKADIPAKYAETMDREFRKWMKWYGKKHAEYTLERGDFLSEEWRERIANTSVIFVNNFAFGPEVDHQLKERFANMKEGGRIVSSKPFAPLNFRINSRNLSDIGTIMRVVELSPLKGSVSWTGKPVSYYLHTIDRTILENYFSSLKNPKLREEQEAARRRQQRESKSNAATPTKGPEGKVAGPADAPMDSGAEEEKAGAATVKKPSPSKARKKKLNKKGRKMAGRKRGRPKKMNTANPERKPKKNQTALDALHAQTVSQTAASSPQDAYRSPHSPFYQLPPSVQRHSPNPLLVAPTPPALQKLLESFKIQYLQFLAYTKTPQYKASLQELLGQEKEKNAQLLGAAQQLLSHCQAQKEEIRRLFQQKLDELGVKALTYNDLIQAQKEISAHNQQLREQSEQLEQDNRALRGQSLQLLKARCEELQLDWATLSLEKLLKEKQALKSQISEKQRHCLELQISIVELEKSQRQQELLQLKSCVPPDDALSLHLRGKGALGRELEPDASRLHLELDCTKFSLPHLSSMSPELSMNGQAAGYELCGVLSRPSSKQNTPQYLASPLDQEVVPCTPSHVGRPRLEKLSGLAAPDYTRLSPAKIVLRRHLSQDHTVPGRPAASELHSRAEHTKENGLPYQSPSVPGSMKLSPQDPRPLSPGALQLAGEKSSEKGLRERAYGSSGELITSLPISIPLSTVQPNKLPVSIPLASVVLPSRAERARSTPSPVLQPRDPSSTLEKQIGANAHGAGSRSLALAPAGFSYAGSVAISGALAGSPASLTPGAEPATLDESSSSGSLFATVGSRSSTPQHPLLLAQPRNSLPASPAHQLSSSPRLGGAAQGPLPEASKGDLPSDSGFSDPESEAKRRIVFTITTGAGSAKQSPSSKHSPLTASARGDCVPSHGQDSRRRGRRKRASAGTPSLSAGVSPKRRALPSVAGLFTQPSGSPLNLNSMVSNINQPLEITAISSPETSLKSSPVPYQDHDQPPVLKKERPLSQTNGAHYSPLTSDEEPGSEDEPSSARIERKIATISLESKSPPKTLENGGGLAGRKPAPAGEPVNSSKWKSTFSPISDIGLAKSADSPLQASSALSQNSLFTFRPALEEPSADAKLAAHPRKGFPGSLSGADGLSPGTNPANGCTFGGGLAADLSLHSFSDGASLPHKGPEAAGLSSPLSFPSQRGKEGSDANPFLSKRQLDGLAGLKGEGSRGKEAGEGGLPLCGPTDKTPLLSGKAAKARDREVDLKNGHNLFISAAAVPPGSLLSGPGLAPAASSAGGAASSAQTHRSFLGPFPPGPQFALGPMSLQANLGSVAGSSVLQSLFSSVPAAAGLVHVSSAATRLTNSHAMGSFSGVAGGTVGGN
UniProt Q08943: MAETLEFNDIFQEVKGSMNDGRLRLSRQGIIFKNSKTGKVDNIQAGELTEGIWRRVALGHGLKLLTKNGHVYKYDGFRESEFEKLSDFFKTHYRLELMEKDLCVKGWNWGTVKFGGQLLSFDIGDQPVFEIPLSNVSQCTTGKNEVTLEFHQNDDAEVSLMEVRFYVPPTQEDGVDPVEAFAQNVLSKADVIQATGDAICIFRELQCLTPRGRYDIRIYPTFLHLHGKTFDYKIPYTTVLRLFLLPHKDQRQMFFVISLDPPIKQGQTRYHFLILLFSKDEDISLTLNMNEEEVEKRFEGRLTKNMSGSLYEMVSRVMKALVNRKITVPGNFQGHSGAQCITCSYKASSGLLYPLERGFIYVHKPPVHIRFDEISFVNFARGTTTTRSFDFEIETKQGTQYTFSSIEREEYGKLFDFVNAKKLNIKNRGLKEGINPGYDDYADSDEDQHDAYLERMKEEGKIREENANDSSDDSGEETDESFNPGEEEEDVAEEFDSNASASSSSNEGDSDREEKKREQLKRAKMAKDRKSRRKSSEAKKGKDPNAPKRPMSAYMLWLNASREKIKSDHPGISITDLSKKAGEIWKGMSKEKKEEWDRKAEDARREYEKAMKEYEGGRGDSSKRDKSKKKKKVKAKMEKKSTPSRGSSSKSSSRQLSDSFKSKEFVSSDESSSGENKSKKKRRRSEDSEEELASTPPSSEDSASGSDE

[2] = biological target: TetR fusion of DOT1L (UniProt Q8TEK3); assay: as above

- binding [1]: binds
- binding [2]: binds
Substance: FACT, endogenous in mouse ES cells, detected through Ssrp1 (from UniProt Q08943 1-708; Q920B9 1-1047) (complex)

From paper PMC10457349
